This is an account of results in patent US20110082119A1, “PROPHYLACTIC/AMELIORATING OR THERAPEUTIC AGENT FOR NON-ALCOHOLIC STEATOHEPATITIS” (priority 2008, published 2011).

The test deals with SD rat fed with high-fat high-sucrose diet. Kind of test: Effectiveness in high fat diet-fed rat. The following applies: HF diet 4 weeks, oral once a day, compared to the control group, EPA-E 1000 mg/kg, atorvastatin calcium hydrate 10 mg/kg. The format is in vivo. The protocol:
4 week old male SD rat is allowed to freely take normal diet (F-1, Funabashi Farm) or high-fat high-sucrose diet (TD88137, Harlan Teklad, hereinafter referred to as “HF diet”) for 4 weeks under 12 hour light-dark cycles at 23° C. […] The administration is conducted orally once a day. The normal group and the control group are orally administered with 5% aqueous solution of gum arabic once a day. After 4 weeks, blood is collected for determining neutrophil count and conduct biochemical tests of the plasma. […] The neutrophil count, TNFα, IL-6, and high sensitivity CPR as well as ferritin, thioredoxin, and type IV collagen also increase.

Take `CC(C)c1c(C(=O)Nc2ccccc2)c(-c2ccccc2)c(-c2ccc(F)cc2)n1CC[C@@H](O)C[C@@H](O)CC(=O)O` [atorvastatin, atorvastatin calcium hydrate]: the “plasma ALT” value is listed as “suppressed increase” and the “plasma AST” value is on record as “suppressed increase”.
